Assay results taken from PubChem BioAssay AID624134 (Broad Institute, 2012).
Hit rate of the full screen: of about 1,600 compounds, about 1,100 (69%) were called active. The set was probably picked from earlier hits. The entries are a selection whose mix differs from that of the whole data set. Results with a measured potency or affinity are listed apart. Records with an inconclusive call do not appear.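 The calls were made as follows: active = signal drop with fitted half-maximal concentration no higher than twice the top valid tested concentration; inconclusive = flat curve with 30 to 70% signal loss, or poor fit; inactive = the rest, including signal rises and flat curves within 30%.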

Test: loss of viability in HepG2 cells – cell-based, CellTiter-Glo, cherry-picked, cytotoxicity control for Shn3 inhibitor project, dose response (AID 624134);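 also: 0% = median of neutral control wells and -100% = median of positive control wells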
Conditions: CellTiter-Glo ATP luminescence, 48 h; at 35 µM (top of the series)

SMILES | activity change, negative = cytotoxicity
O=C(NCCCn1ccnc1)C(=O)NCC1OCCCN1S(=O)(=O)c1ccccc1 (stereo not drawn) | inactive: 3.35%
Cc1cc(CN2CCOCC2)c(O)c(C2(C)CCCCC2)c1 | inactive: 12.9%
CCCc1nc([N+](=O)[O-])c(S(=O)(=O)c2ccccc2)n1CC(C)C | inactive: -25.5%
Cc1c(CCOC(=O)CC23CC4CC(CC(C4)C2)C3)sc[n+]1CC(=O)c1ccc(Br)cc1 | inactive: -13.8%
Cc1cc(=O)oc2c3c(cc(OCC(=O)Nc4ccc(CCO)cc4)c12)OC(C)(C)CC3 | inactive: -4.82%
COCCn1c(SCC(=O)/C=C2\N(C)c3ccccc3C2(C)C)nnc1-c1ccncc1 | inactive: -22%
CC1=NOC(=O)/C1=C\c1ccc(-c2cc(Cl)ccc2Cl)o1 | inactive: -3.66%
COc1ccc(C(=O)OCC(=O)Nc2ccc3[nH]c(=O)[nH]c3c2)cc1 | inactive: -7.95%
CCCCCCCCNC(C)C(O)c1ccc(SC(C)C)cc1 (stereo not drawn) | -96.2%
O=C1CC(c2ccccc2)CC(O)=C1C=Nc1cccc(Cl)c1 (stereo not drawn) | inactive: -7.86%
COc1ccccc1-n1cc([C@@H]2C[C@H]3CN(c4ccccc4)C(=O)[C@]34CCCN24)cn1 | inactive: -18.9%
CCCCCCC#Cc1ccc2c(c1)COc1c3ccccc3nn1-2 | inactive: -0.219%
Cc1ccc(-c2nc3ncccc3o2)cc1NC(=O)c1sc2ccccc2c1Cl | inactive: -3.4%

Single values from above.
activity change, negative = cytotoxicity with COc1ccc(C(=O)OCC(=O)Nc2ccc3[nH]c(=O)[nH]c3c2)cc1 is entered as inactive: -7.95%
activity change, negative = cytotoxicity with Cc1cc(=O)oc2c3c(cc(OCC(=O)Nc4ccc(CCO)cc4)c12)OC(C)(C)CC3 is entered as inactive: -4.82%
